These are yes or no findings as the source states them, for the method shown. Binding seen in cells or lysates may run through a third protein. Some binding calls cover weakened binding; strength is not graded here. For some of these results: Sequences can lack the tags named with a protein.
What was measured:
Pirh2-3×FLAG (human) = target: T1, Pirh2-3×FLAG (human) (UniProt Q96PM5); assay: co-IP; HEK293T transiently transfected with Pirh2-3×FLAG or empty vector; lysates in modified RIPA buffer on anti-FLAG M2 agarose 4 h at 4 °C, eluted with 3× FLAG peptide; western blot for endogenous HuR
T1 sequence: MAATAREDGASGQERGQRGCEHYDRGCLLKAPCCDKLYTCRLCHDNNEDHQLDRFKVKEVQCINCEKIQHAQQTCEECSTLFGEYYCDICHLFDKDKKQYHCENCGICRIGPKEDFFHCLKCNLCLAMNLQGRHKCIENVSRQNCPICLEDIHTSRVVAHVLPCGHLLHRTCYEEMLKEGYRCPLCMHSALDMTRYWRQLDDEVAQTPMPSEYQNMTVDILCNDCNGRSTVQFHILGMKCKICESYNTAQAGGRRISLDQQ

Sequences of proteins named here, by UniProt entry; tags and fusion partners are left off.
UniProt Q15717: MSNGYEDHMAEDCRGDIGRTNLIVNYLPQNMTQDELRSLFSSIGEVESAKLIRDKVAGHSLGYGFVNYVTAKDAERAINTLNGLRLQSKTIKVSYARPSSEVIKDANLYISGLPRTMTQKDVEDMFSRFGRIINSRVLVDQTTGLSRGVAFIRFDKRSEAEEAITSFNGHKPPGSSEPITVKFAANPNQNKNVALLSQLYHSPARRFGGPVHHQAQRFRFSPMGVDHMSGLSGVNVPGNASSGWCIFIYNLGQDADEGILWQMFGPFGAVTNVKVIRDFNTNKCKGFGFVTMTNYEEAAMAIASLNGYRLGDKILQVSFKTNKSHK
UniProt P12956: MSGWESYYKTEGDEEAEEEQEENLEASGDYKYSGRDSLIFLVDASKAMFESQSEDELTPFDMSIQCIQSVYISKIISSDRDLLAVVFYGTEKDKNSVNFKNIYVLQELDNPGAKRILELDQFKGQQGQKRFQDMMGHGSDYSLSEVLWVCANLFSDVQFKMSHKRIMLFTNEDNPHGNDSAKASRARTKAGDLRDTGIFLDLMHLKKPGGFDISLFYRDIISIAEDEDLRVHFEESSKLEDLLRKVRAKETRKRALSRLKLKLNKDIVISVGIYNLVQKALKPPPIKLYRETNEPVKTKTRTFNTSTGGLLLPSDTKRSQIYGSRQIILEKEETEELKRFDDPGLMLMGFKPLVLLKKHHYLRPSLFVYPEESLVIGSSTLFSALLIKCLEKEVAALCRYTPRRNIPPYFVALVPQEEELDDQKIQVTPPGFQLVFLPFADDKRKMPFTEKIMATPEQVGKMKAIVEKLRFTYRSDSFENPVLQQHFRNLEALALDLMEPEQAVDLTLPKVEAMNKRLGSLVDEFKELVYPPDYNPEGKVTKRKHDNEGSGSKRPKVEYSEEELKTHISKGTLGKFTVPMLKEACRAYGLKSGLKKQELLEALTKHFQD

[1] = target: T2, RING domain of Pirh2 (RING-GST) (human) (UniProt Q96PM5); assay: pull-down; purified GST-tagged Pirh2 domains, full-length Pirh2-GST and GST incubated with whole-cell extract from HEK293T; western blot for HuR; only the target purified
T2 sequence: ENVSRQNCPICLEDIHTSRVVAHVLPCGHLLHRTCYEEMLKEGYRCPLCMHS

[2] = target: HuR (ELAVL1), endogenous in HeLa (human (endogenous in HeLa)) (UniProt Q15717); assay: co-IP; extract of 1 × 10^7 HeLa cells, 5 μg anti-HuR mouse monoclonal antibodies or mouse IgG, 4 °C 4 h, Protein G magnetic beads; western blot
HuR-3×FLAG = HuR-3×FLAG (UniProt Q15717); assay: co-IP; HeLa cells with ectopically expressed HuR-3×FLAG or empty pIRES vector; western blot for endogenous Pirh2
Ku70-GST = Ku70-GST (UniProt P12956); assay: pull-down; reciprocal pull-downs of Pirh2 with Ku70-GST, HuR-GST or GST alone (Supplementary Fig. S1); source of Pirh2 not given, by the general method a cell lysate; only the target purified
HuR-GST [3] = target: HuR-GST (UniProt Q15717); assay: as above
HuR-GST [4] = target: HuR-GST (UniProt Q15717); assay: pull-down; purified HuR-GST (GST as control) with cellular extract from HEK293T cells; western blot for endogenous Pirh2; only the target purified

“HuR (ELAVL1), endogenous in HEK293T (from UniProt Q15717 1-326)” was tested, and the binding (Pirh2-3×FLAG (human)) was “binds” and the binding [1] was “binds”.

B1: Pirh2, endogenous in HeLa (enzyme, UniProt Q96PM5 1-261)
chain: T1 sequence
In the case of B1, the binding [2] is reported as “binds” and the binding (HuR-3×FLAG) is reported as “binds”.

B2: Pirh2 (prey of the reciprocal pull-downs of Supplementary Fig. S1) (enzyme, UniProt Q96PM5 1-261)
chain: T1 sequence
With B2 the binding (Ku70-GST) was “binds” and the binding (HuR-GST [3]) was “binds”.

B3: Pirh2, endogenous in HEK293T (enzyme, UniProt Q96PM5 1-261)
chain: T1 sequence
With B3 the binding (HuR-GST [4]) was “binds”.
